Measurements: PubChem BioAssay AID186 (DTP/NCI, 2004)
The mice bore no tumour; each value counts animals alive of those treated. Survivors were counted at the toxicity check, usually on the fifth day, unless a day is given; later deaths do not show. Schedule codes are those of the source, taken here to give the interval after Q, in days (D) or hours (H), and the number of doses after X.

System: B6D2F1 mice, nontumored toxicity test, survival
Assay: NCI In Vivo Anticancer Drug Screen. Data for tumor model Nontumored Animals (Toxicity Test) in B6D2F1 (BDF1) mice

C=CN1CCCC1=O
survivor count (dose: 1.9 grams/kg/injection, schedule: Q01DX001 (iv), vehicle: saline): 10 of 10
survivor count (dose: 1.9 grams/kg/injection, schedule: Q01DX005 (iv), vehicle: saline): 10 of 10
survivor count (dose: 1.9 grams/kg/injection, schedule: Q04DX003 (iv), vehicle: saline): 10 of 10
survivor count (dose: 3.8 grams/kg/injection, schedule: Q01DX001 (ip), vehicle: saline): 10 of 10
survivor count (dose: 3.8 grams/kg/injection, schedule: Q01DX001 (iv), vehicle: saline): 10 of 10
survivor count (dose: 3.8 grams/kg/injection, schedule: Q01DX005 (ip), vehicle: saline): 10 of 10
survivor count (dose: 3.8 grams/kg/injection, schedule: Q01DX005 (iv), vehicle: saline): 10 of 10
survivor count (dose: 3.8 grams/kg/injection, schedule: Q01DX009 (ip), vehicle: saline): 10 of 10
survivor count (dose: 3.8 grams/kg/injection, schedule: Q03HX008 (ip), vehicle: saline): 10 of 10
survivor count (dose: 3.8 grams/kg/injection, schedule: Q03HX016 (ip), vehicle: saline): 10 of 10
survivor count (dose: 3.8 grams/kg/injection, schedule: Q03HX024 (ip), vehicle: saline): 10 of 10
survivor count (dose: 3.8 grams/kg/injection, schedule: Q04DX003 (ip), vehicle: saline): 10 of 10
survivor count (dose: 3.8 grams/kg/injection, schedule: Q04DX003 (iv), vehicle: saline): 10 of 10
survivor count (dose: 3.8 grams/kg/injection, schedule: Q08DX002 (ip), vehicle: saline): 10 of 10
survivor count (dose: 7.5 grams/kg/injection, schedule: Q01DX001 (ip), vehicle: saline): 10 of 10
survivor count (dose: 7.5 grams/kg/injection, schedule: Q01DX001 (iv), vehicle: saline): 10 of 10
survivor count (dose: 7.5 grams/kg/injection, schedule: Q01DX005 (ip), vehicle: saline): 10 of 10
survivor count (dose: 7.5 grams/kg/injection, schedule: Q01DX005 (iv), vehicle: saline): 10 of 10
survivor count (dose: 7.5 grams/kg/injection, schedule: Q01DX009 (ip), vehicle: saline): 10 of 10
survivor count (dose: 7.5 grams/kg/injection, schedule: Q03HX008 (ip), vehicle: saline): 10 of 10
survivor count (dose: 7.5 grams/kg/injection, schedule: Q03HX016 (ip), vehicle: saline): 10 of 10
survivor count (dose: 7.5 grams/kg/injection, schedule: Q03HX024 (ip), vehicle: saline): 10 of 10
survivor count (dose: 7.5 grams/kg/injection, schedule: Q04DX003 (ip), vehicle: saline): 10 of 10
survivor count (dose: 7.5 grams/kg/injection, schedule: Q04DX003 (iv), vehicle: saline): 10 of 10
survivor count (dose: 7.5 grams/kg/injection, schedule: Q08DX002 (ip), vehicle: saline): 10 of 10

C1CN1c1nc(N2CC2)nc(N2CC2)n1
survivor count (dose: 0.67 mg/kg/injection, schedule: Q01DX005 (ip), vehicle: saline): 10 of 10
survivor count (dose: 1.0 mg/kg/injection, schedule: Q01DX005 (ip), vehicle: saline): 10 of 10
survivor count (dose: 1.5 mg/kg/injection, schedule: Q01DX005 (ip), vehicle: saline): 9 of 9

O=C[C@@H](CO)O[C@H](C=O)n1cnc2c(=O)[nH]cnc21
survivor count (dose: 125.0 mg/kg/injection, schedule: Q01DX009 (ip), vehicle: saline with Tween-80): 10 of 10
survivor count (dose: 150.0 mg/kg/injection, schedule: Q01DX009 (ip), vehicle: saline with Tween-80): 10 of 10
survivor count (dose: 175.0 mg/kg/injection, schedule: Q01DX009 (ip), vehicle: saline with Tween-80): 10 of 10
survivor count (dose: 200.0 mg/kg/injection, schedule: Q01DX009 (ip), vehicle: saline with Tween-80): 10 of 10
survivor count (dose: 200.0 mg/kg/injection, schedule: Q04DX003 (ip), vehicle: saline with Tween-80): 10 of 10
survivor count (dose: 225.0 mg/kg/injection, schedule: Q01DX009 (ip), vehicle: saline with Tween-80): 10 of 10
survivor count (dose: 250.0 mg/kg/injection, schedule: Q04DX003 (ip), vehicle: saline with Tween-80): 10 of 10
survivor count (dose: 300.0 mg/kg/injection, schedule: Q04DX003 (ip), vehicle: saline with Tween-80): 10 of 10
survivor count (dose: 350.0 mg/kg/injection, schedule: Q04DX003 (ip), vehicle: saline with Tween-80): 10 of 10
survivor count (dose: 400.0 mg/kg/injection, schedule: Q04DX003 (ip), vehicle: saline with Tween-80): 10 of 10

N#Cc1cn(C2OC(CO)C(O)C2O)c2ncnc(N)c12 (stereo not given)
survivor count (dose: 0.01 mg/kg/injection, schedule: Q06HX024 (ip), vehicle: saline): 8 of 8
survivor count (dose: 0.02 mg/kg/injection, schedule: Q06HX024 (ip), vehicle: saline): 8 of 8
survivor count (dose: 0.05 mg/kg/injection, schedule: Q06HX024 (ip), vehicle: saline): 8 of 8
survivor count (dose: 0.1 mg/kg/injection, schedule: Q06HX024 (ip), vehicle: saline): 8 of 8
survivor count (dose: 0.2 mg/kg/injection, schedule: Q06HX024 (ip), vehicle: saline): 7 of 8
survivor count (dose: 0.4 mg/kg/injection, schedule: Q06HX024 (ip), vehicle: saline): 3 of 8

NC(=O)N(CCCl)N=O
survivor count (dose: 2.0 mg/kg/injection, schedule: Q01DX001 (ip), vehicle: saline + alcohol): 10 of 10
survivor count (dose: 4.0 mg/kg/injection, schedule: Q01DX001 (ip), vehicle: saline + alcohol): 10 of 10
survivor count (dose: 8.0 mg/kg/injection, schedule: Q01DX001 (ip), vehicle: saline + alcohol): 10 of 10
survivor count (dose: 16.0 mg/kg/injection, schedule: Q01DX001 (ip), vehicle: saline + alcohol): 10 of 10
survivor count (dose: 32.0 mg/kg/injection, schedule: Q01DX001 (ip), vehicle: saline + alcohol): 7 of 10
survivor count (dose: 64.0 mg/kg/injection, schedule: Q01DX001 (ip), vehicle: saline + alcohol): 0 of 10

C[S+](C)CCCNC(=O)c1csc(-c2csc(CCNC(=O)c3ccccc3)n2)n1
survivor count (dose: 6.25 mg/kg/injection, schedule: Q01DX011 (ip), vehicle: saline): 6 of 6
survivor count (dose: 12.5 mg/kg/injection, schedule: Q01DX011 (ip), vehicle: saline): 6 of 6
survivor count (dose: 25.0 mg/kg/injection, schedule: Q01DX011 (ip), vehicle: saline): 6 of 6
survivor count (dose: 50.0 mg/kg/injection, schedule: Q01DX011 (ip), vehicle: saline): 6 of 6
survivor count (dose: 100.0 mg/kg/injection, schedule: Q01DX011 (ip), vehicle: saline): 1 of 6
